Survivor count and T/C data for 26 molecules are collected here from PubChem BioAssay AID248 (DTP/NCI, 2004).

This assay deals with L1210 leukemia ip in BDF1 mice, survival T/C. Kind of assay: NCI In Vivo Anticancer Drug Screen. Data for tumor model L1210 Leukemia (intraperitoneal) in B6D2F1 (BDF1) mice. The following applies: T/C endpoint: mean survival time, higher T/C = longer survival.
Where [1] appears, read: dose: 200.0 mg/kg/injection, schedule: Q01DX009 (ip), vehicle: saline with Tween-80.
[2] abbreviates: dose: 400.0 mg/kg/injection, schedule: Q01DX009 (ip), vehicle: saline with Tween-80.
Setting [3] is: dose: 400.0 mg/kg/injection, schedule: Q01DX009 (ip), vehicle: Klucel (hydroxypropylcellulose) (HPC).
Where [4] appears, read: dose: 150.0 mg/kg/injection, schedule: Q01DX001 (ip), vehicle: saline.
Setting [5] is: dose: 400.0 mg/kg/injection, schedule: Q01DX001 (ip), vehicle: other.
The mark [6] stands for this setting: dose: 400.0 mg/kg/injection, schedule: Q04DX003 (ip), vehicle: saline.
[7] abbreviates: dose: 100.0 mg/kg/injection, schedule: Q01DX009 (ip), vehicle: water.
Setting [8] is: dose: 200.0 mg/kg/injection, schedule: Q01DX009 (ip), vehicle: water.
The mark [9] stands for this setting: dose: 400.0 mg/kg/injection, schedule: Q01DX009 (ip), vehicle: water.
Where [10] appears, read: dose: 200.0 mg/kg/injection, schedule: Q01DX009 (ip), vehicle: saline.
[11] abbreviates: dose: 400.0 mg/kg/injection, schedule: Q04DX003 (ip), vehicle: Klucel (hydroxypropylcellulose) (HPC).

The list is a part of this screen's results and no random one: it is rich in T/C values a quarter to a half above the control, in often repeated tests (any T/C) and in doses without a T/C. Further doses and runs are listed elsewhere. T/C: endpoint of the treated group in % of that of the vehicle group. Some doses have a count of surviving animals in place of a T/C: the source files T/C as zero there, which appears to mark a toxic dose or a test without result, not a measured value. Some survivor counts are full or nearly so, which does not show that the dose was tolerated: the source hardly ever lists a survival T/C far under the control, and the zero likely stands for such cases as well. Counts of survivors are from the toxicity check (mostly the fifth day) where no day follows; animals may have died later. Schedule codes are those of the source, taken here to give the interval after Q, in days (D) or hours (H), and the number of doses after X. Some schedules carry Z or #; the key to these is not given. Where survival is the endpoint, the PubChem record calls one and a half times the control and up active, and a quarter to a half above the control has no call in these data; cut-offs in other NCI protocols can differ. Some T/C values are followed by the survivors on the day toxicity was checked, most often the fifth; where none is given, no animal had died by that day.

For the molecule `Clc1nc(Cl)c(Cl)[nH]1`, the survivor count is, setting by setting: (dose: 25.0 mg/kg/injection, schedule: Q01DX009 (ip), vehicle: saline with Tween-80) 0 of 6; (dose: 100.0 mg/kg/injection, schedule: Q01DX009 (ip), vehicle: saline with Tween-80) 0 of 6; under setting [1], 0 of 6; under setting [2], 0 of 6.
As for `Nc1cc(Cl)cc2c1-c1c(Cl)cc(Cl)cc1C2O` (stereo unspecified), the survivor count under setting [3] is on record as 3 of 6.
`CC(=O)Oc1cccc(C)c1`: the survivor count under setting [2] is reported as 0 of 6.
As to `CN(C)[C@@H]1C(=O)C(C(=O)NCNC(Cc2ccc(N(CCCl)CCCl)cc2)C(=O)O)=C(O)[C@@]2(O)C(=O)C3=C(O)c4c(O)cccc4[C@@](C)(O)[C@H]3C[C@@H]12` (stereo partly specified), the T/C reads like this: (dose: 3.0 mg/kg/injection, schedule: Q01DX009 (ip), vehicle: other) 125 % of control; (dose: 4.4 mg/kg/injection, schedule: Q01DX009 (ip), vehicle: other) 127 % of control; (dose: 9.38 mg/kg/injection, schedule: Q01DX009 (ip), vehicle: saline) 141 % of control [5 of 6 alive]; (dose: 13.0 mg/kg/injection, schedule: Q01DX001 (ip), vehicle: other) 129 % of control; (dose: 20.0 mg/kg/injection, schedule: Q01DX001 (ip), vehicle: other) 131 % of control; (dose: 30.0 mg/kg/injection, schedule: Q01DX009 (ip), vehicle: other) 132 % of control. The T/C under setting [4] is 141 % of control. Also, the survivor count (dose: 50.0 mg/kg/injection, schedule: Q01DX009 (ip), vehicle: other) was 6 of 6; the survivor count (dose: 150.0 mg/kg/injection, schedule: Q01DX001 (ip), vehicle: other) is reported as 6 of 6; the survivor count (dose: 150.0 mg/kg/injection, schedule: Q01DX009 (ip), vehicle: saline) was 6 of 6.
As to `C[N+](C)(Cc1ccc(F)cc1)C1c2ccccc2-c2ccccc21`, under “dose: 12.5 mg/kg/injection, schedule: Q04DX003 (ip), vehicle: saline with Tween-80”, the survivor count is listed as 6 of 6.
For the molecule `COc1cc2ccnc(Cc3ccccc3)c2cc1OC`, the survivor count under setting [1] is 3 of 6; the survivor count under setting [2] was 0 of 6; the survivor count (dose: 400.0 mg/kg/injection, schedule: Q04DX003 (ip), vehicle: saline with Tween-80) was 4 of 6.
Regarding `CN(/N=N/c1nc[nH]c1C(=O)NN)C1CCCCC1`, the survivor count under setting [5] is given as 1 of 4.
As for `N#CC(Nc1ccccc1)c1ccccc1` (stereo unspecified), under setting [3], the survivor count was 0 of 6.
For the molecule `NCCOc1ccc([N+](=O)[O-])cc1Cl`, the survivor count under setting [6] is on record as 2 of 6.
As for `CC1(C)OCC(C2OC(c3ccccc3)OC(CO)C2O)O1` (stereo unspecified), the survivor count runs as follows: (dose: 50.0 mg/kg/injection, schedule: Q04DX002 (ip), vehicle: saline with Tween-80) 0 of 3; (dose: 100.0 mg/kg/injection, schedule: Q04DX002 (ip), vehicle: saline with Tween-80) 0 of 3; (dose: 200.0 mg/kg/injection, schedule: Q04DX002 (ip), vehicle: saline with Tween-80) 0 of 3.
Take `CC[N+](C)(CC)CCN1C(=O)c2ccccc2S1(=O)=O`: the survivor count (dose: 100.0 mg/kg/injection, schedule: Q01DX Z (ip), vehicle: saline) was 1 of 6.
On to `ClCCN(CCCl)c1cc(OCc2ccccc2)cc(OCc2ccccc2)c1`, for which the survivor count reads like this: (dose: 25.0 mg/kg/injection, schedule: Q01DX009 (ip), vehicle: water) 5 of 6; (dose: 50.0 mg/kg/injection, schedule: Q01DX009 (ip), vehicle: water) 6 of 6; under setting [7], 5 of 6; under setting [8], 6 of 6; under setting [9], 6 of 6.
Consider `C[N+](C)(CCOc1ccccc1)Cc1cccs1`, for which the survivor count is, setting by setting: (dose: 200.0 mg/kg/injection, schedule: Q01DX001 (ip), vehicle: saline) 1 of 4; (dose: 400.0 mg/kg/injection, schedule: Q01DX001 (ip), vehicle: saline) 0 of 4.
Turning to `CCNNC`, the survivor count under setting [6] is reported as 3 of 6.
On to `CN(C)C(=S)c1ccc(Cl)cc1`, for which the survivor count was 2 of 6 (dose: 50.0 mg/kg/injection, schedule: Q01DX009 (ip), vehicle: Klucel (hydroxypropylcellulose) (HPC)); 0 of 6 (dose: 100.0 mg/kg/injection, schedule: Q01DX009 (ip), vehicle: Klucel (hydroxypropylcellulose) (HPC)); 0 of 6 (dose: 200.0 mg/kg/injection, schedule: Q01DX009 (ip), vehicle: Klucel (hydroxypropylcellulose) (HPC)); 0 of 6 under setting [3].
`CC1=C(/C=C\C(C)=N\NC(=O)c2ccc[n+](C)c2)C(C)(C)CCC1`: the survivor count (dose: 100.0 mg/kg/injection, schedule: Q01DX009 (ip), vehicle: saline) was 0 of 3 and the survivor count under setting [10] was 0 of 3.
As for `Clc1ccc(C[As+](c2ccccc2)(c2ccccc2)c2ccccc2)cc1`, the survivor count (dose: 10.0 mg/kg/injection, schedule: Q01DX001 (ip), vehicle: saline) is 6 of 6; the survivor count (dose: 40.0 mg/kg/injection, schedule: Q01DX001 (ip), vehicle: saline) is 0 of 6; the survivor count (dose: 75.0 mg/kg/injection, schedule: Q01DX001 (ip), vehicle: saline) is on record as 0 of 6; the survivor count under setting [4] is recorded as 0 of 6; the survivor count (dose: 300.0 mg/kg/injection, schedule: Q01DX001 (ip), vehicle: saline) is 0 of 6.
As for `O=C(O)c1ccc(F)c(F)c1F`, where the note is “dose: 400.0 mg/kg/injection, schedule: Q04DX002 (ip), vehicle: other”, the survivor count was 1 of 3.
With `CCOC(=O)C1(C(C)C)OC2(O)CCCCCN2C1=O` (stereo unspecified), the survivor count (dose: 400.0 mg/kg/injection, schedule: Q04DX002 (ip), vehicle: saline) is recorded as 3 of 3.
Regarding `C/C(CCC1=CC=CC1=O)=N\NC(N)=O`, the survivor count runs as follows: (dose: 200.0 mg/kg/injection, schedule: Q01DX001 (ip), vehicle: other) 0 of 4; under setting [5], 0 of 4.
As for `Nc1ccc([As](=O)(O)O)cc1`, the survivor count is reported as 3 of 3 under setting [10] and 1 of 3 (dose: 400.0 mg/kg/injection, schedule: Q01DX009 (ip), vehicle: saline).
Turning to `O=C(O)CNC1CSSC1`, the survivor count is 3 of 6 under setting [7], 0 of 6 under setting [8] and 0 of 6 under setting [9].
As to `c1cc2c3c(c1)nc(CCc1nc4cccc5c4n1CCC5)n3CCC2`, the survivor count (dose: 200.0 mg/kg/injection, schedule: Q04DX003 (ip), vehicle: saline with Tween-80) is 6 of 6.
In the case of `CC(C)(C)/[N+]([O-])=[N+](\[O-])C(C)(C)C` (tested in a mixture with another compound), the survivor count under setting [11] is given as 1 of 6.
The same measure, in the same setting: the result for `[N-]=[N+]=C1C(C(=O)c2ccccc2)=NN=C1c1ccccc1` reads 5 of 6.
`O=[Se](c1ccccc1)c1ccccc1`: the survivor count is, setting by setting: (dose: 100.0 mg/kg/injection, schedule: Q04DX002 (ip), vehicle: Klucel (hydroxypropylcellulose) (HPC)) 1 of 3; (dose: 200.0 mg/kg/injection, schedule: Q04DX002 (ip), vehicle: Klucel (hydroxypropylcellulose) (HPC)) 0 of 3; (dose: 400.0 mg/kg/injection, schedule: Q04DX002 (ip), vehicle: Klucel (hydroxypropylcellulose) (HPC)) 0 of 3.
